Source: ChEMBL document CHEMBL3988442, “University of Dundee, Small-Polar-MMV Screening Library” (2021).

Sequences of proteins named here, by UniProt entry; tags and fusion partners are left off.
UniProt P9WFT3, whole entry: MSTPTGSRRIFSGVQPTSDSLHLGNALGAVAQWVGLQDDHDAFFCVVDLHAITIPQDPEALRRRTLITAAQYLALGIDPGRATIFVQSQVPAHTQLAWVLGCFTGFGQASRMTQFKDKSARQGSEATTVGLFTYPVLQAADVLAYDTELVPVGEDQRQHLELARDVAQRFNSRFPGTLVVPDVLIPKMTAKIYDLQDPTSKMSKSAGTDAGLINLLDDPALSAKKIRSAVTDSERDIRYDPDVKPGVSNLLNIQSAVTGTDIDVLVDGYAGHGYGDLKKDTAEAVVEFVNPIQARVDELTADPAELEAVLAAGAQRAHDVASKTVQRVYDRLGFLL
UniProt I6X8D2, whole entry: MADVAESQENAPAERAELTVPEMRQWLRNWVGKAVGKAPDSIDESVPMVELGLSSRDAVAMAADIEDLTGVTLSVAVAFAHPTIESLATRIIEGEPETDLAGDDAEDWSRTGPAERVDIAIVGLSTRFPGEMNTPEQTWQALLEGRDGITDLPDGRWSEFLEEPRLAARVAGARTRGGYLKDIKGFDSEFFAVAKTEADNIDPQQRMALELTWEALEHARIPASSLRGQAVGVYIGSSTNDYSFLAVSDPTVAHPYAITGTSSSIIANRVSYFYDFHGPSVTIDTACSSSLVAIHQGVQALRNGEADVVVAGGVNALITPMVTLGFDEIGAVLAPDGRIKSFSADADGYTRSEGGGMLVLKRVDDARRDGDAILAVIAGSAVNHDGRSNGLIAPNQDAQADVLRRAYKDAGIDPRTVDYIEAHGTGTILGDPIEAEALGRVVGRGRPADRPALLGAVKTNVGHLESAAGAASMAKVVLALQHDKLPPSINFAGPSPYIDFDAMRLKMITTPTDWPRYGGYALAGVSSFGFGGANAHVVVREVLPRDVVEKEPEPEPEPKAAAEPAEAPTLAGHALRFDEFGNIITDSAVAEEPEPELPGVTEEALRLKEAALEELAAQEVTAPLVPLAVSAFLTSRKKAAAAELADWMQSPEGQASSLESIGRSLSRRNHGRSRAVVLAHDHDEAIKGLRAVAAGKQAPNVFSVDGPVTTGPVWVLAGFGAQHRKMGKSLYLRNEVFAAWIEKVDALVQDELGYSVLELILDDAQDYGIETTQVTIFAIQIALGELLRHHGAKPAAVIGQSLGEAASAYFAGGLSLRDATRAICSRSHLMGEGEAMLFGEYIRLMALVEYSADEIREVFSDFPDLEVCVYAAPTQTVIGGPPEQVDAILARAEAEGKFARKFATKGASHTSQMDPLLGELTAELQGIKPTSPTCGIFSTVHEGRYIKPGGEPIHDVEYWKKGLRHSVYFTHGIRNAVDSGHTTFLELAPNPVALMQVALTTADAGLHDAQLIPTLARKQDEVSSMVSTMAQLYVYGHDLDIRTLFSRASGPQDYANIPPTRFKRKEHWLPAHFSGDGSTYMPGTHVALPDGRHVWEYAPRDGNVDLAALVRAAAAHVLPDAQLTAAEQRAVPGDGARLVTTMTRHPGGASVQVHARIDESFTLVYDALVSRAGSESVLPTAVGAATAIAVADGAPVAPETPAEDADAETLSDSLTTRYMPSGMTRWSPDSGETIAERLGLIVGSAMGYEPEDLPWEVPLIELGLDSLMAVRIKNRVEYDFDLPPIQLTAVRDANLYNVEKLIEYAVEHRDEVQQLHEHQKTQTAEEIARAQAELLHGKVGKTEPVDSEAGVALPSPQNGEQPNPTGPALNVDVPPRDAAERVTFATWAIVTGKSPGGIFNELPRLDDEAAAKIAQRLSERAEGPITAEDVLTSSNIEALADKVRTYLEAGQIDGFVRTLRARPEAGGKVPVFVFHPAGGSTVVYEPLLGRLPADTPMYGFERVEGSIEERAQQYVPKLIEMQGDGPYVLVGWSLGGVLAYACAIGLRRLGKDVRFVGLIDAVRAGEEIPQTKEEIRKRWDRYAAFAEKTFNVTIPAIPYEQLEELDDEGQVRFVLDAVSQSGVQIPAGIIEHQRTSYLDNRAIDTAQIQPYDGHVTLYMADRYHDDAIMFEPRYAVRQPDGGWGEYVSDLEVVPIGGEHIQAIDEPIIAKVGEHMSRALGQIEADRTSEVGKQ
UniProt P9WNZ1, whole entry: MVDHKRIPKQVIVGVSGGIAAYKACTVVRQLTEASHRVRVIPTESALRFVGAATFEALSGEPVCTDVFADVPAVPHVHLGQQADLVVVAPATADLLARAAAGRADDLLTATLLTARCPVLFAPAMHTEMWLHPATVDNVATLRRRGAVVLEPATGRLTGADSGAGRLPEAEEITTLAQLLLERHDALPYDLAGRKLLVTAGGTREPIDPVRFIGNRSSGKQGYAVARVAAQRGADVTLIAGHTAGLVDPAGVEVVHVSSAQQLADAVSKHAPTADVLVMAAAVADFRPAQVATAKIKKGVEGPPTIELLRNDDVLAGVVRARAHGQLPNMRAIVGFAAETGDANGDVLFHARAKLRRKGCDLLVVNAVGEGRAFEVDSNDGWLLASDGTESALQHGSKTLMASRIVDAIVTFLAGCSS

MtTrpRS: 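Enzyme assay of tryptophanyl-tRNA synthetase; the read-out is not stated. Target: Tryptophan-tRNA ligase, Mycobacterium tuberculosis (UniProt P9WFT3). Compounds at 10 µM. Direction is not recorded; retested compounds ran higher, which suggests that high means inhibition. Of about 65,000 compounds tested this way, about 64 (0.098%) reached 50% or more in at least one test.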
Pks13 thioesterase: 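Enzyme assay of the thioesterase domain of polyketide synthase 13; the read-out is not stated. Target: Polyketide synthase Pks13, Mycobacterium tuberculosis (UniProt I6X8D2). Tested at 30 µM. Higher reads as stronger inhibition (inferred from which compounds were picked for retests). About 67,000 compounds were tested under these conditions; 0.46% (about 300) showed 50% or more at least once.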
CoaBC: 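Coenzyme A biosynthesis protein CoaBC, Mycobacterium tuberculosis (UniProt P9WNZ1). Enzyme assay of CoaBC with a phosphate dye (Biomol Green) read at 650 nm. Tested at 30 µM. Direction is inferred from only a few compounds that gave an IC50; most scored high, so higher reads as stronger inhibition. Most strong results did not repeat in a second test. Size under these conditions: about 67,000 compounds, about 40 of them at 50% or above in at least one test.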

Each number is a percent effect as filed.
How 0% and 100% were set is not recorded. Most values in the screen are low, and negative values occur.
This is an unselected part of the compounds tested.

{"structure": "Cc1noc(C)c1CNc1cccc(C(=O)N(C)c2ccccc2)c1", "MtTrpRS": 13.38, "Pks13 thioesterase": 3.058, "CoaBC": -8.824}
{"structure": "O=C(NC1CCN(c2ccc(-c3ccccc3F)nn2)C1)c1cc[nH]n1", "stereo": "centres unmarked", "MtTrpRS": -3.723, "Pks13 thioesterase": -31.41, "CoaBC": 10.78}
{"structure": "CC(C)CN1C(=O)C2(CCCC2)NC1c1cccnc1", "stereo": "centres unmarked", "MtTrpRS": 6.989, "Pks13 thioesterase": -13.62, "CoaBC": 7.54}
{"structure": "COc1ccc(C(=O)N2CC(=O)N(C3CCC3)CC(O)C2)cc1OC", "stereo": "centres unmarked", "Pks13 thioesterase": -6.644, "CoaBC": 1.211}
{"structure": "O=C(c1c2c(N3CCCC3)ncnc2n2ccccc12)N1CCCC1", "MtTrpRS": 3.836, "Pks13 thioesterase": -14.31, "CoaBC": 12.18}
{"structure": "OCC(CO)Nc1ccc2ccc(Cl)c(Cl)c2n1", "MtTrpRS": 5.253, "Pks13 thioesterase": 15.71, "CoaBC": -2.444}
{"structure": "CCN1CCn2c(C)cnc2C12CCN(C(=O)C(C)C)CC2", "MtTrpRS": -3.151, "Pks13 thioesterase": -11.97, "CoaBC": 2.588}
{"structure": "O=C(NCc1ccncc1)N1CCSCC1c1ccc(Cl)cc1", "stereo": "centres unmarked", "MtTrpRS": -1.833, "Pks13 thioesterase": -22.45, "CoaBC": -2.439}
{"structure": "c1cnc(N2CCC3(CC2)CN(CC2CC2)c2ccccc23)nc1", "MtTrpRS": 0.07633, "Pks13 thioesterase": -6.947, "CoaBC": 0}
{"structure": "c1cnc(NCc2cncc3c2CCN(CC2CC2)C3)nc1", "Pks13 thioesterase": -3.376, "CoaBC": 2.716}
{"structure": "N#Cc1ccc(CCC(=O)N2CCCC(n3cncn3)C2)cc1", "stereo": "centres unmarked", "MtTrpRS": -9.371, "Pks13 thioesterase": -0.3625, "CoaBC": 14.69}
{"structure": "Cc1nnc(NCc2ccccc2S(=O)(=O)N(C)C)c(C#N)c1C", "MtTrpRS": -3.483, "Pks13 thioesterase": -25.64, "CoaBC": 5.106}
{"structure": "O=C1CCCN1Cc1nnc2n1CCN(Cc1ccccn1)CC2", "MtTrpRS": -6.831, "Pks13 thioesterase": -28.71, "CoaBC": 5.792}
{"structure": "CN1CCO[C@@H]2CN(S(=O)(=O)c3cccnc3)C[C@@H]2C1", "Pks13 thioesterase": -2.191, "CoaBC": 1.576}
{"structure": "CCc1nc(NC(=O)NCCc2cccc(C)n2)nn1C", "MtTrpRS": 1.286, "Pks13 thioesterase": -16.17, "CoaBC": 3.99}
{"structure": "CCc1nccn1C1CCCN(C(=O)c2csc(NC(C)=O)n2)C1", "stereo": "centres unmarked", "MtTrpRS": -3.155, "Pks13 thioesterase": -12.7, "CoaBC": -0.527}
{"structure": "OCC1(CC2CC2)CCCN(Cc2ccc(C(F)(F)F)nc2)C1", "stereo": "centres unmarked", "MtTrpRS": -1.638, "Pks13 thioesterase": -33.44, "CoaBC": -5.652}
{"structure": "Cn1cc(-c2ncc3c(c2C(=O)O)CCN(CC2CCOC2)C3)cn1", "stereo": "centres unmarked", "Pks13 thioesterase": 111.2, "CoaBC": -1.609}
{"structure": "CC(C)c1cc(NC(=O)CN2CCn3c(nnc3C3CC3)C2)on1", "MtTrpRS": 26.05, "Pks13 thioesterase": -21.61, "CoaBC": 1.901}
{"structure": "CN(Cc1ccsc1)C(=O)C1CCC(=O)N(Cc2ccccn2)C1", "stereo": "centres unmarked", "MtTrpRS": -1.591, "Pks13 thioesterase": -6.273, "CoaBC": -0.9901}
{"structure": "CCc1cc(N(C)Cc2ccncn2)n2nc(C)c(C)c2n1", "MtTrpRS": 0.4831, "Pks13 thioesterase": -8.091, "CoaBC": 2.814}
{"structure": "Cc1ncc(S(C)(=O)=O)c(N2CCCN(Cc3ccccn3)CC2)n1", "MtTrpRS": -1.213, "Pks13 thioesterase": -0.139, "CoaBC": 2.137}
{"structure": "O=C(COc1ccc(-c2ccccc2)nc1)NCC1CC1", "MtTrpRS": -13.11, "Pks13 thioesterase": -11.41, "CoaBC": 8.482}
{"structure": "O=S(=O)(c1cccnc1)N1CCN(Cc2nc(-c3cccs3)cs2)CC1", "MtTrpRS": 2.549, "Pks13 thioesterase": -16.28, "CoaBC": 3.053}
{"structure": "Cn1cnnc1C1CCCN1C(=O)Nc1cccc(OC(F)F)c1", "stereo": "centres unmarked", "MtTrpRS": 2.156, "Pks13 thioesterase": -4.072, "CoaBC": -1.179}